# Source: the supplement of paper PMC8728848
# Some of the results follow.
# Assays:
# Experiment in all cases: glycan array binding signal (z-score within array); higher = stronger binding
# Details in all cases: glycan notation: IUPAC condensed, linker removed
# [1] = molecular target: Man(a1-3)[Man(a1-6)]Man(a1-6)[Man(a1-3)]Man
# How it was run: (§1)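 Glycan array binding is given as a within-array Z-score, which can be read as non-binding when negative. The arrays, 3228 of them, came from the Consortium for Functional Glycomics database and were retained only where the protein sequence was available. Z-scores were averaged across arrays of the same protein sequence at different concentrations or buffers and across linkers.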
# [2] = molecular target: Man(a1-3)[Man(a1-6)]Man(a1-6)[Man(a1-3)]Man(b1-4)GlcNAc(b1-4)GlcNAc
# How it was run: as §1
# [3] = molecular target: Man(a1-3)[Man(a1-6)]Man(b1-4)GlcNAc(b1-4)GlcNAc
# How it was run: as §1
# Man(a1-6)Man = molecular target: Man(a1-6)Man
# How it was run: as §1
# Man(b1-4)GlcNAc = molecular target: Man(b1-4)GlcNAc
# How it was run: as §1
# Neu5Ac(a2-3)Gal = molecular target: Neu5Ac(a2-3)Gal
# How it was run: as §1
# [4] = molecular target: Neu5Ac(a2-3)Gal(b1-3)GalNAc
# How it was run: as §1
# [5] = molecular target: Neu5Ac(a2-3)Gal(b1-3)GalNAc(b1-3)Gal(a1-4)Gal(b1-4)Glc
# How it was run: as §1
# [6] = molecular target: Neu5Ac(a2-3)Gal(b1-3)GalNAc(b1-3)Gal(b1-4)GlcNAc
# How it was run: as §1
# [7] = molecular target: Neu5Ac(a2-3)Gal(b1-3)GalNAc(b1-4)[Neu5Ac(a2-3)]Gal(b1-4)Glc
# How it was run: as §1
# [8] = molecular target: Neu5Ac(a2-3)Gal(b1-3)GalNAc6S
# How it was run: as §1
# [9] = molecular target: Neu5Ac(a2-3)Gal(b1-3)GlcNAc
# How it was run: as §1
# [10] = molecular target: Neu5Ac(a2-3)Gal(b1-3)GlcNAc(b1-3)Gal(b1-3)GlcNAc
# How it was run: as §1
# [11] = molecular target: Neu5Ac(a2-3)Gal(b1-3)GlcNAc6S
# How it was run: as §1
# [12] = molecular target: Neu5Ac(a2-3)Gal(b1-3)[Fuc(a1-4)]GlcNAc
# How it was run: as §1
# [13] = molecular target: Neu5Ac(a2-3)Gal(b1-3)[Fuc(a1-4)]GlcNAc(b1-3)Gal(b1-4)[Fuc(a1-3)]GlcNAc
# How it was run: as §1
# [14] = molecular target: Neu5Ac(a2-3)Gal(b1-3)[Neu5Ac(a2-3)Gal(b1-4)]GlcNAc
# How it was run: as §1
# [15] = molecular target: Neu5Ac(a2-3)Gal(b1-3)[Neu5Ac(a2-6)]GalNAc
# How it was run: as §1
# Neu5Ac(a2-3)Gal(b1-4)Glc = molecular target: Neu5Ac(a2-3)Gal(b1-4)Glc
# How it was run: as §1
# [16] = molecular target: Neu5Ac(a2-3)Gal(b1-4)GlcNAc
# How it was run: as §1
# [17] = molecular target: Neu5Ac(a2-3)Gal(b1-4)GlcNAc(b1-2)Man(a1-3)[GlcNAc(b1-2)Man(b1-4)GlcNAc(b1-2)Man(a1-6)]Man(b1-4)GlcNAc(b1-4)GlcNAc
# How it was run: as §1
# [18] = molecular target: Neu5Ac(a2-3)Gal(b1-4)GlcNAc(b1-2)Man(a1-3)[Neu5Ac(a2-6)Gal(b1-4)GlcNAc(b1-2)Man(a1-6)]Man(b1-4)GlcNAc(b1-4)GlcNAc
# How it was run: as §1
# [19] = molecular target: Neu5Ac(a2-3)Gal(b1-4)GlcNAc(b1-3)Gal(b1-3)GlcNAc
# How it was run: as §1
# [20] = molecular target: Neu5Ac(a2-3)Gal(b1-4)GlcNAc(b1-3)Gal(b1-4)GlcNAc
# How it was run: as §1
# [21] = molecular target: Neu5Ac(a2-3)Gal(b1-4)GlcNAc(b1-3)Gal(b1-4)GlcNAc(b1-3)Gal(b1-4)GlcNAc
# How it was run: as §1
# [22] = molecular target: Neu5Ac(a2-3)Gal(b1-4)GlcNAc(b1-3)Gal(b1-4)[Fuc(a1-3)]GlcNAc
# How it was run: as §1
# [23] = molecular target: Neu5Ac(a2-3)Gal(b1-4)GlcNAc(b1-6)[Gal(b1-3)]GalNAc
# How it was run: as §1
# [24] = molecular target: Neu5Ac(a2-3)Gal(b1-4)GlcNAc(b1-6)[Neu5Ac(a2-3)Gal(b1-3)]GalNAc
# How it was run: as §1
# [25] = molecular target: Neu5Ac(a2-3)Gal(b1-4)GlcNAc6S
# How it was run: as §1
# [26] = molecular target: Neu5Ac(a2-3)Gal(b1-4)[Fuc(a1-3)]GlcNAc
# How it was run: as §1
# [27] = molecular target: Neu5Ac(a2-3)Gal(b1-4)[Fuc(a1-3)]GlcNAc(b1-3)Gal
# How it was run: as §1
# [28] = molecular target: Neu5Ac(a2-3)Gal(b1-4)[Fuc(a1-3)]GlcNAc(b1-3)Gal(b1-4)GlcNAc
# How it was run: as §1
# [29] = molecular target: Neu5Ac(a2-3)Gal(b1-4)[Fuc(a1-3)]GlcNAc(b1-3)Gal(b1-4)[Fuc(a1-3)]GlcNAc(b1-3)Gal(b1-4)[Fuc(a1-3)]GlcNAc
# How it was run: as §1
# [30] = molecular target: Neu5Ac(a2-3)Gal(b1-4)[Fuc(a1-3)]GlcNAc(b1-6)[Gal(b1-3)]GalNAc
# How it was run: as §1
# [31] = molecular target: Neu5Ac(a2-3)Gal(b1-4)[Fuc(a1-3)]GlcNAc6S
# How it was run: as §1
# [32] = molecular target: Neu5Ac(a2-3)Gal6S(b1-4)GlcNAc
# How it was run: as §1
# [33] = molecular target: Neu5Ac(a2-3)Gal6S(b1-4)[Fuc(a1-3)]GlcNAc
# How it was run: as §1
# Neu5Ac(a2-3)GalNAc = molecular target: Neu5Ac(a2-3)GalNAc
# How it was run: as §1
# [34] = molecular target: Neu5Ac(a2-3)GalNAc(b1-4)GlcNAc
# How it was run: as §1
# [35] = molecular target: Neu5Ac(a2-3)[GalNAc(b1-4)]Gal(b1-4)Glc
# How it was run: as §1
# [36] = molecular target: Neu5Ac(a2-3)[GalNAc(b1-4)]Gal(b1-4)GlcNAc
# How it was run: as §1
# [37] = molecular target: Neu5Ac(a2-3)[Neu5Ac(a2-6)]GalNAc
# How it was run: as §1
# Neu5Ac(a2-6)Gal = molecular target: Neu5Ac(a2-6)Gal
# How it was run: as §1
# Neu5Ac(a2-6)Gal(b1-4)Glc = molecular target: Neu5Ac(a2-6)Gal(b1-4)Glc
# How it was run: as §1
# [38] = molecular target: Neu5Ac(a2-6)Gal(b1-4)GlcNAc
# How it was run: as §1
binder,measurement,setting,value
"CLC (Homo sapiens), Q9UBD9 (protein) MDLRAGDSWGMLACLCTVLWHLPAVPALNRTGDPGPGPSIQKTYDLTRYLEHQLRSLAGTYLNYLGPPFNEPDFNPPRLGAETLPRATVDLEVWRSLNDKLRLTQNYEAYSHLLCYLRGLNRQAATAELRRSLAHFCTSLQGLLGSIAGVMAALGYPLPQPLPGTEPTWTPGPAHSDFLQKMDDFWLLKELQTWLWRSAKDFNRLKKKMQPPAAAVTLHLGAHGF",glycan array binding signal (z-score),[1],-0.046
same,glycan array binding signal (z-score),[2],1.12
same,glycan array binding signal (z-score),[3],-0.158
same,glycan array binding signal (z-score),Man(a1-6)Man,0.174
same,glycan array binding signal (z-score),Man(b1-4)GlcNAc,-0.027
same,glycan array binding signal (z-score),Neu5Ac(a2-3)Gal,0.948
same,glycan array binding signal (z-score),[4],-0.219
same,glycan array binding signal (z-score),[5],-0.342
same,glycan array binding signal (z-score),[6],0.696
same,glycan array binding signal (z-score),[7],1.31
same,glycan array binding signal (z-score),[8],-0.29
same,glycan array binding signal (z-score),[9],-0.576
same,glycan array binding signal (z-score),[10],-0.666
same,glycan array binding signal (z-score),[11],0.111
same,glycan array binding signal (z-score),[12],-0.63
same,glycan array binding signal (z-score),[13],-0.381
same,glycan array binding signal (z-score),[14],0.655
same,glycan array binding signal (z-score),[15],-0.09
same,glycan array binding signal (z-score),Neu5Ac(a2-3)Gal(b1-4)Glc,0.101
same,glycan array binding signal (z-score),[16],0.402
same,glycan array binding signal (z-score),[17],1.14
same,glycan array binding signal (z-score),[18],0.098
same,glycan array binding signal (z-score),[19],0.852
same,glycan array binding signal (z-score),[20],-0.262
same,glycan array binding signal (z-score),[21],-0.322
same,glycan array binding signal (z-score),[22],1.71
same,glycan array binding signal (z-score),[23],-0.301
same,glycan array binding signal (z-score),[24],0.384
same,glycan array binding signal (z-score),[25],-0.118
same,glycan array binding signal (z-score),[26],-0.565
same,glycan array binding signal (z-score),[27],-0.741
same,glycan array binding signal (z-score),[28],-0.089
same,glycan array binding signal (z-score),[29],-0.485
same,glycan array binding signal (z-score),[30],0.17
same,glycan array binding signal (z-score),[31],0.883
same,glycan array binding signal (z-score),[32],0.033
same,glycan array binding signal (z-score),[33],-0.518
same,glycan array binding signal (z-score),Neu5Ac(a2-3)GalNAc,0.032
same,glycan array binding signal (z-score),[34],-1.14
same,glycan array binding signal (z-score),[35],0.02
same,glycan array binding signal (z-score),[36],-0.181
same,glycan array binding signal (z-score),[37],-0.302
same,glycan array binding signal (z-score),Neu5Ac(a2-6)Gal,-0.927
same,glycan array binding signal (z-score),Neu5Ac(a2-6)Gal(b1-4)Glc,1.07
same,glycan array binding signal (z-score),[38],-0.707

# Looked up one by one from the entries so far (three):
binder,measurement,setting,value
"CLC (Homo sapiens), Q9UBD9 (protein) MDLRAGDSWGMLACLCTVLWHLPAVPALNRTGDPGPGPSIQKTYDLTRYLEHQLRSLAGTYLNYLGPPFNEPDFNPPRLGAETLPRATVDLEVWRSLNDKLRLTQNYEAYSHLLCYLRGLNRQAATAELRRSLAHFCTSLQGLLGSIAGVMAALGYPLPQPLPGTEPTWTPGPAHSDFLQKMDDFWLLKELQTWLWRSAKDFNRLKKKMQPPAAAVTLHLGAHGF",glycan array binding signal (z-score),[31],0.883
same,glycan array binding signal (z-score),[25],-0.118
same,glycan array binding signal (z-score),[14],0.655
